Hit rate of the full screen: of about 140,000 compounds, about 4,300 (3.1%) were called active. This list was built around the results that the source calls inconclusive (neither active nor inactive); the mix of calls is not that of the screen.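 Rule for the calls: active = readout at or below -70, meaning at least 70% loss of cells showing the perinucleolar compartment, a nuclear body marking cancer cells; inconclusive = readout between -30 and a set limit; inactive = the rest.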
assay: High Content Assay for Compounds that inhibit the Assembly of the Perinucleolar Compartment; conditions: PC3M PTB-GFP, PNC prevalence imaging, 16 h; at 10 µM; hits give low values;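 note: plate controls were DMSO wells for no effect and camptothecin positive control wells for full effect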
In short: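 Read-out is percentage of cells bearing a perinucleolar compartment, from automated 20x imaging of fixed, Hoechst-stained PC3M PTB-GFP cells. Cells were seeded 4 h, then exposed 16 h to compound (23 nl of library stock) in duplicate plates.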

| SMILES | activity change (PNC), negative = inhibition |
| --- | --- |
| N#C/C(=C\c1ccc(-c2ccccc2[N+](=O)[O-])o1)C(=O)Nc1nc(-c2cccs2)cs1 | inactive: -0.107% |
| Cc1ccc(-c2nc(-c3ccccn3)no2)cc1Cl | inconclusive: -47.6% |
| O=C(CN1C(=O)S/C(=C/c2cccnc2)C1=O)N1CCOCC1 | inactive: 4.85% |
| CCc1nc(C)cn1S(=O)(=O)c1cc(Br)c(C)cc1OC | inconclusive: -56.2% |
| CN(C)S(=O)(=O)c1ccc(NC(=O)C2CC3C=CC2C3)cc1 (centres undefined) | inconclusive: -63.8% |
| O=C(COC(=O)Cn1cnc2ccccc21)Nc1ccc2c(c1)OCCO2 | inactive: 32.8% |
| O=C(NCc1nnc(SCC(=O)N2CCC(Cc3ccccc3)CC2)o1)c1ccccc1F | inactive: -27.2% |
| O=C(NCCN1CCOCC1)NC1(C(F)(F)F)Oc2ccc(Cl)cc2O1 (centres undefined) | inactive: -29.1% |
| Cc1ccc2oc(=O)c3cnn(CC(=O)N4CCCCC4C)c3c2c1 (centres undefined) | inconclusive: -42.5% |
| O=C1COc2ccc(C(=O)CSc3nnc(Cc4cccs4)n3-c3ccccc3)cc2N1 | inconclusive: -61.3% |
| Nc1nc(Nc2ccccc2)nc(NCc2ccco2)c1[N+](=O)[O-] | inconclusive: -49% |
| CCCN1C(=O)/C(=C/c2ccc(C)o2)SC1=Nc1ccc(OC)cc1 | inactive: 30.6% |
| Clc1ccc2c(c1)-c1nnc(Br)n1-c1ccccc1S2 | active: -100% |
| CC(=O)N(C(C)=O)c1ncc2c([nH]c3ccccc32)c1C#N | inconclusive: -47.8% |
| O=C(NCC1COCCO1)C1CCN(S(=O)(=O)c2ccccc2)CC1 (centres undefined) | inconclusive: -42.5% |
| CCCC(c1nnnn1CCc1ccccc1)N1CCN(C2CCCC2)CC1 (centres undefined) | inconclusive: -30.9% |
| Cc1ccn2cc(CCNC(=O)CC(C)(C)C)nc2c1 | active: -100% |
| CC1CN(c2nc3ccccc3nc2C(C#N)C(=O)OC2CCCCC2)CC(C)O1 (centres undefined) | inconclusive: -76.5% |
| COC(=O)CCCCC1SCC(NC(=O)OC)C1NC(=O)OC (centres undefined) | active: -86% |
| Nc1nnn(Cc2ccccc2)n1 | active: -100% |
| CCN(CC)CCCNC(=O)c1cn(C)c2ccc(S(=O)(=O)N(C)C)cc2c1=O | inconclusive: -48.4% |
| CC1CCCCN1c1nnc(NC(=O)c2cc(-c3ccc(Br)cc3)on2)s1 (centres undefined) | inactive: -22.6% |

A draw from above in order of length of the SMILES, rising.

| SMILES | activity change (PNC), negative = inhibition |
| --- | --- |
| Nc1nnn(Cc2ccccc2)n1 | active: -100% |
| O=C(CN1C(=O)S/C(=C/c2cccnc2)C1=O)N1CCOCC1 | inactive: 4.85% |
| O=C1COc2ccc(C(=O)CSc3nnc(Cc4cccs4)n3-c3ccccc3)cc2N1 | inconclusive: -61.3% |

The listing continues:

| SMILES | activity change (PNC), negative = inhibition |
| --- | --- |
| CCOC(=O)c1[nH]c(Cc2[nH]c(C(=O)OCC)c(C)c2CCC(=O)OC)c(CCC(=O)OC)c1C | inconclusive: -40.3% |
| Cc1cc2ccccn2c1C(=O)c1ccncc1 | inactive: 48.2% |
| COc1ccc(N=C(C)C2=C(O)CSC2=O)cc1 | inactive: 18.5% |
| Nc1nn(-c2ccccc2)c(N)c1N=Nc1ccc2c(c1)OCO2 | inconclusive: -49% |
| CCCN(CCC)CC(O)CN(c1ccccc1)S(=O)(=O)c1ccc(C)cc1 (centres undefined) | inconclusive: -70.9% |
| CSc1ccccc1NC(=O)CN(Cc1ccccc1)S(C)(=O)=O | inactive: 48.9% |
| Cc1cc(C)n2nc(S(=O)(=O)NC3CCCCC3)nc2n1 | inconclusive: -34.6% |
| O=S(=O)(c1ccc(Oc2ccc(S(=O)(=O)N3CCOCC3)cc2)cc1)N1CCOCC1 | inactive: -7.97% |
| COc1ccc2c(c1)O[C@@H](c1cccc(C(F)(F)F)c1)[C@H](OC(=O)NCCc1ccc(OC)c(OC)c1)C2=O | inconclusive: -62% |
| O=C(Nc1nccc(-c2cccs2)n1)c1cccs1 | inconclusive: -36% |
| Cc1cccc(NC(=O)CCC(=O)N/N=C/c2ccco2)c1 | inactive: 30.6% |
| COc1ccccc1C(=O)C1Nc2ccccc2-c2nnc(SC)nc2O1 (centres undefined) | active: -104% |
| COc1ccccc1C(=O)Nc1ccc(OCc2nnc3c4ccccc4c(C)nn23)cc1 | inconclusive: -62.8% |
| COc1ccc(C(C(=O)Nc2ccc(F)cc2)N(C(=O)Cn2nnc3ccccc32)C2CC2)cc1 (centres undefined) | inconclusive: -61% |
| COc1ccc(C2NC(=S)NC(C)=C2C(=O)c2ccccc2)cc1OC (centres undefined) | active: -85.9% |
| N#CC1=C(S)N(c2ccc(F)cc2)C(c2cccs2)NC1=O (centres undefined) | inactive: 22.6% |
| CCn1c(C)nc2cc(S(=O)(=O)N3CCCCC3)ccc21 | inconclusive: -61.9% |
| CCc1nc(C)cn1S(=O)(=O)c1ccc(Cl)c(Cl)c1Cl | inconclusive: -45.5% |
| O=c1ccc2cc3c([nH]c4ccc(Br)cc43)oc-2c1O | inactive: 2.45% |
| CCSc1nc2ccc(N3C(=O)C4C5C=CC(C5)C4C3=O)cc2s1 (centres undefined) | inactive: 4.93% |
| O=C(CCC1COc2ccccc2O1)NC1CCCCC1 (centres undefined) | inconclusive: -45.3% |
| COC(=O)c1ccccc1S(=O)(=O)N(Cc1cc2ccc(OC)cc2[nH]c1=O)CC1CCCO1 (centres undefined) | active: -97.9% |
